One assay has as its target T1, Flag-OSBPL2 (mouse) (UniProt Q8BX94).
T1 sequence: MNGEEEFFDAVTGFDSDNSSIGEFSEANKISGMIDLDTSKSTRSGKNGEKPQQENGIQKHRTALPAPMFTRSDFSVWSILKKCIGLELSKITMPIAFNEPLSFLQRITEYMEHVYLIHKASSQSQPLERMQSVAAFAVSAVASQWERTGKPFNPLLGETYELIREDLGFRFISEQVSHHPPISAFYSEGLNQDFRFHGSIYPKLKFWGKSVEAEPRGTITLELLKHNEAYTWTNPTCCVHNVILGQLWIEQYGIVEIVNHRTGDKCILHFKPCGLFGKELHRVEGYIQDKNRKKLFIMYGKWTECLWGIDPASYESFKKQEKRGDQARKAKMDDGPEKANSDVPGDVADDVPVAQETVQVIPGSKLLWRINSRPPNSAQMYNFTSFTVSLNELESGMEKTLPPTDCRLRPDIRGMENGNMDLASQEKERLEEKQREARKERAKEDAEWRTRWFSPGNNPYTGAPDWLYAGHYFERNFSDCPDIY
The assay can be described thus: co-IP; HEK293Ta cells expressing HA-Inpp5e and Flag-OSBPL2, RIPA lysate, anti-FLAG M2 magnetic beads overnight at 4°C, washed at least 5 times with RIPA, Western blot.

The target of another assay is T2, GST-OSBPL2 (mouse) (UniProt Q8BX94).
T2 sequence: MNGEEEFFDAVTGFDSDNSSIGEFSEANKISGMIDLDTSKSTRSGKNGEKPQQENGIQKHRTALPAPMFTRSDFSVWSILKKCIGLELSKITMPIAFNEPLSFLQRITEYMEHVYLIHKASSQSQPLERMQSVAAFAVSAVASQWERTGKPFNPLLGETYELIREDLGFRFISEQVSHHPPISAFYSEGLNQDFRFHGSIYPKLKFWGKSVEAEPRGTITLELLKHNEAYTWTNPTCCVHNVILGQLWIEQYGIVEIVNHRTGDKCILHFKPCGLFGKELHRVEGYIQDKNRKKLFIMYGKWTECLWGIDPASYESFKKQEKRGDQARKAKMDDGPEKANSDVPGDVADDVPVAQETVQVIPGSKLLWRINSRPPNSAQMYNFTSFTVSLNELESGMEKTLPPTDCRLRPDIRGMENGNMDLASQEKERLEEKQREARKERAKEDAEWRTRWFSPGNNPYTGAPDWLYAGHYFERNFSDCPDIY
As to the kind of experiment: pull-down; purified GST-OSBPL2 (or GST) and His-INPP5E incubated with Glutathione Agarose overnight at 4°C, washed in IP Lysis Buffer at least 3 times, Western blot; both purified.

Results are given in words; binding and its absence hold for the method and conditions named. For some assays here: In cells and extracts the contact can be indirect. Some binding calls cover weakened binding; strength is not graded here. Tags and fused reporters may be left off the sequences shown.

B1: HA-Inpp5e (protein, UniProt Q9JII1 1-647)
chain: MPSKSACLRHTEAPGQLEGRMLQGQPPNTEKKLIPTPGFLPASDSQGSETNPMPPFSIPAKTSNQNPQTKANLITPQPPIRPKLERTLSLDDKGWRRRRFRGSQEDLTVQNGASPCRGSLQDSVAQSPAYSRPLPCLSTSLQEIPKSRRATGSEGGSPSLWSDCLSGMISTSLDLLHRDAASGGPPSRLASLHASHTPPAMDLSIASSSLRTANKVDPEHTDYKLRMQTRLVRAHSNLGPSRPRSPLAGDDHSIHSARSFSLLAPIRTKDIRSRSYLEGSLLASGALLGAEELARYFPDRNMALFVATWNMQGQKELPASLDEFLLPTEADYTQDLYVIGIQEGCSDRREWETRLQETLGPQYVLLSSAAHGVLYMSLFIRRDLIWFCSEVEYSTVTTRIVSQIKTKGALGVSFTFFGTSFLFITSHFTSGDGKVAERLLDYSRTIQALALPRNVPDTNPYRSSAGDVTTRFDEVFWFGDFNFRLSGGRVAVEAFLKQKPEVDVLALLQHDQLTREMKKGSIFRGFEEAEIHFLPSYKFDIGKDTYDSTSKQRTPSYTDRVLYKSRHKGDICPMKYSSCPGIKTSDHRPVYGLFQVKVRPGRDNIPLAAGKFDRELYLIGIKRRISKEIQRQEALKSQSSSAVCTVS
As for B1, the binding entry in the assay with Flag-OSBPL2 (mouse) is listed as “binds”.

B2: His-INPP5E (protein, UniProt Q9JII1 1-647)
chain: MPSKSACLRHTEAPGQLEGRMLQGQPPNTEKKLIPTPGFLPASDSQGSETNPMPPFSIPAKTSNQNPQTKANLITPQPPIRPKLERTLSLDDKGWRRRRFRGSQEDLTVQNGASPCRGSLQDSVAQSPAYSRPLPCLSTSLQEIPKSRRATGSEGGSPSLWSDCLSGMISTSLDLLHRDAASGGPPSRLASLHASHTPPAMDLSIASSSLRTANKVDPEHTDYKLRMQTRLVRAHSNLGPSRPRSPLAGDDHSIHSARSFSLLAPIRTKDIRSRSYLEGSLLASGALLGAEELARYFPDRNMALFVATWNMQGQKELPASLDEFLLPTEADYTQDLYVIGIQEGCSDRREWETRLQETLGPQYVLLSSAAHGVLYMSLFIRRDLIWFCSEVEYSTVTTRIVSQIKTKGALGVSFTFFGTSFLFITSHFTSGDGKVAERLLDYSRTIQALALPRNVPDTNPYRSSAGDVTTRFDEVFWFGDFNFRLSGGRVAVEAFLKQKPEVDVLALLQHDQLTREMKKGSIFRGFEEAEIHFLPSYKFDIGKDTYDSTSKQRTPSYTDRVLYKSRHKGDICPMKYSSCPGIKTSDHRPVYGLFQVKVRPGRDNIPLAAGKFDRELYLIGIKRRISKEIQRQEALKSQSSSAVCTVS
With B2, the binding entry with GST-OSBPL2 (mouse) is reported as “binds”.

Values taken from publication PMC8876550.
